Data reported in doi:10.1101/2023.02.03.527076.
No constants are given. Whether binding was seen depends on the method and setting. For some assays here: A result given as binding can be weak or reduced; the word gives no strength. Sequences can lack the tags named with a protein. For some assays here: In cells and extracts the contact can be indirect.

By UniProt entry, the sequences of proteins in these tests, tags left out. Where a name states a change or a piece, a line headed by the entry shows the natural chain unless it says otherwise.
UniProt Q6NME6: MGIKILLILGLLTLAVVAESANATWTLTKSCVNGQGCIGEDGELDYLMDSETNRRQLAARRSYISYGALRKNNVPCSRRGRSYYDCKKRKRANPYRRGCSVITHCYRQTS
UniProt O81765: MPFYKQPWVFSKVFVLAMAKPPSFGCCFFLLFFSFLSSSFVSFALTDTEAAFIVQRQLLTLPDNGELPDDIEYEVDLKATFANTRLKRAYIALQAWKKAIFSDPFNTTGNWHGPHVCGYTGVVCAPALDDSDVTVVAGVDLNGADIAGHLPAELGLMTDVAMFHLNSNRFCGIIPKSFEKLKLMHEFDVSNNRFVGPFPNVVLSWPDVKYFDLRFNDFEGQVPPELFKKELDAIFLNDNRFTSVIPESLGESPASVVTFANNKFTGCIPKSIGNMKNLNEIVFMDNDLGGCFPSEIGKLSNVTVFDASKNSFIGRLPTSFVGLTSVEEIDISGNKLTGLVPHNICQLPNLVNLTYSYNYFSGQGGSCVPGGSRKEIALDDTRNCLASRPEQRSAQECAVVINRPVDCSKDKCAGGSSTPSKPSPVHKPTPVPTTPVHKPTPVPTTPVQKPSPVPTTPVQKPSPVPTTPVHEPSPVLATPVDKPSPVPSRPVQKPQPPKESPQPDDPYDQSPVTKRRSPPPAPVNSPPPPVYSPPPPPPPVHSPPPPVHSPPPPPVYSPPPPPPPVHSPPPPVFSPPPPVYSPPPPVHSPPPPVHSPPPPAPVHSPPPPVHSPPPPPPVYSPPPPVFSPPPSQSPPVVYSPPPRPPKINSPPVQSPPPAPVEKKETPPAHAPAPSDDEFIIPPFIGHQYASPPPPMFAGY

Columns and labels:
[1] = molecular target: T1, LUC^N-AtSYP32 (Arabidopsis thaliana) (UniProt Q9LK09); assay: split reporter
T1 sequence: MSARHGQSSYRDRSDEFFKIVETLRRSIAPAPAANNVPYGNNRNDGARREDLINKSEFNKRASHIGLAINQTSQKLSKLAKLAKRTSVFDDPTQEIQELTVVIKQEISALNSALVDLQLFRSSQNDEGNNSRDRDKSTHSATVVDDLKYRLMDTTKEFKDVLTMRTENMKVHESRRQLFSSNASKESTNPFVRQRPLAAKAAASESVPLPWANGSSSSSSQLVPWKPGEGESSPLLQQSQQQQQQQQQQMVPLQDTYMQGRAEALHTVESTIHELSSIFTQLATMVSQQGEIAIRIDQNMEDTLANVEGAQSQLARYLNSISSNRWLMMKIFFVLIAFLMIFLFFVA

[2] = molecular target: T2, AtSYP32 (BiFC fusion) (Arabidopsis thaliana) (UniProt Q9LK09); assay: split reporter
T2 sequence: T1 sequence

[3] = molecular target: T3, AtSYP32 (yeast two-hybrid fusion) (Arabidopsis thaliana) (UniProt Q9LK09); assay: two-hybrid
T3 sequence: T1 sequence

[4] = molecular target: T4, AtSYP31 (yeast two-hybrid fusion) (Arabidopsis thaliana) (UniProt Q9FFK1); assay: two-hybrid
T4 sequence: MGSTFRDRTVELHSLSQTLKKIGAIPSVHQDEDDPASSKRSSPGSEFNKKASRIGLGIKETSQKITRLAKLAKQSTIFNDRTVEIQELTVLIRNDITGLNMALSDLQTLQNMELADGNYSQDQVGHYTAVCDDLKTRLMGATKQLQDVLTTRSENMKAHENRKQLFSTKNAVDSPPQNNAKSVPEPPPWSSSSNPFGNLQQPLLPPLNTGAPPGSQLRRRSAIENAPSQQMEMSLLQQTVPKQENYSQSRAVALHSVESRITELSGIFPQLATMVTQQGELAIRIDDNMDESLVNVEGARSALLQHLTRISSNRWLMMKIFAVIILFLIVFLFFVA

Row | binding [3] | binding [4] | Substance | binding [1] | binding [2]
1 |  |  | LUC^C-RALF19 (from UniProt Q6NME6) (ligand) | binds | 
2 |  |  | RALF19 (BiFC fusion) (from UniProt Q6NME6) (ligand) |  | binds
3 |  |  | LUC^C-LRX11 (from UniProt O81765) | binds | 
4 | binds | no binding | LRX11 (yeast two-hybrid fusion) (from UniProt O81765) |  | 
5 |  |  | LRX11 (BiFC fusion) (from UniProt O81765) |  | binds
6 | binds | no binding | RALF19 (yeast two-hybrid fusion) (from UniProt Q6NME6) (ligand) |  | 
